Taken from: PubChem BioAssay AID1224826 (NIAID, 2016)
The whole screen tested about 17,000 reagents; below is a random part of them. About 1,110 of them (6.6%) were called active. 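Active means lowered or raised reporter signal; replicate intensities are raw and not normalised per plate.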 A number with no mark means an inactive call. Not all columns of the deposit are shown.

Test: 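Genes that change LPS-induced Tnf promoter activity in mouse macrophages when knocked down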 (primary screen)
Cells: RAW264.7 G9 macrophages from mouse bearing reporters for p65 (GFP) and the Tnf promoter (mCherry)
Knock-down reagent: siRNA pool against mouse genes, 100 nM
Timing: 16 h of LPS stimulation, after 2 days of siRNA transfection
Challenge: bacterial lipopolysaccharide (Salmonella minnesota R595), 10 ng/ml
Detection: 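Nuclear mCherry signal of the Tnf promoter reporter measured by imaging after background removal, scaled to each plate median and turned into robust z-scores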
Reading the numbers: Tnf reporter robust z-score: higher = stronger Tnf promoter reporter signal after LPS
Hit rule: 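Called active when robust z-score is at most -1.3, matching the median of the Tlr4 knock-down control, or over 3; control wells and wells with under 50 cells never active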
Meaning of the calls: active = Tnf reporter clearly lowered or raised; inactive = no clear change in Tnf reporter

The opening 7 entries as a preview:
Gene	Tnf reporter robust z-score	fewer than 50 cells in well
Rcan1 (regulator of calcineurin 1)	-1.12	enough cells in well
Egr3 (early growth response 3)	-0.16	enough cells in well
Slc35f3		fewer than 50 cells per well; well left out of calls
Mkrn1 (makorin, ring finger protein, 1)	-0.24	enough cells in well
Npas1 (neuronal PAS domain protein 1)	-0.64	enough cells in well
Tas2r114 (taste receptor, type 2, member 114)		fewer than 50 cells per well; well left out of calls
Ptgdr2 (prostaglandin D2 receptor 2)	-0.13	enough cells in well

Results, from the first entry:
Gene	Tnf reporter robust z-score	fewer than 50 cells in well
Rcan1 (regulator of calcineurin 1)	-1.12	enough cells in well
Egr3 (early growth response 3)	-0.16	enough cells in well
Slc35f3		fewer than 50 cells per well; well left out of calls
Mkrn1 (makorin, ring finger protein, 1)	-0.24	enough cells in well
Npas1 (neuronal PAS domain protein 1)	-0.64	enough cells in well
Tas2r114 (taste receptor, type 2, member 114)		fewer than 50 cells per well; well left out of calls
Ptgdr2 (prostaglandin D2 receptor 2)	-0.13	enough cells in well
Cln5 (ceroid-lipofuscinosis, neuronal 5)	-0.8	enough cells in well
Elavl2 (ELAV like RNA binding protein 2)	0.81	enough cells in well
Ube2s (ubiquitin-conjugating enzyme E2S)	-0.51	enough cells in well
Gng10 (guanine nucleotide binding protein (G protein), gamma 10)	0.17	enough cells in well
Nmb (neuromedin B)	-0.53	enough cells in well
S1pr3 (sphingosine-1-phosphate receptor 3)	-0.32	enough cells in well
Alg3 (ALG3 alpha-1,3- mannosyltransferase)	0.01	enough cells in well
Wasf2 (WASP family, member 2)	0.39	enough cells in well
Extl2 (exostosin-like glycosyltransferase 2)	0.57	enough cells in well
Cldn19 (claudin 19)	-0.95	enough cells in well
Chek2 (checkpoint kinase 2)	1.85	enough cells in well
Mrpl2 (mitochondrial ribosomal protein L2)	2.8	enough cells in well
Il18r1 (interleukin 18 receptor 1)	-0.6	enough cells in well
Tnni2 (troponin I, skeletal, fast 2)	0.15	enough cells in well
Ugt2a3 (UDP glucuronosyltransferase 2 family, polypeptide A3)		fewer than 50 cells per well; well left out of calls
Mogat2 (monoacylglycerol O-acyltransferase 2)	0.19	enough cells in well
Tlk2 (tousled-like kinase 2 (Arabidopsis))	-0.03	enough cells in well
Tcf15 (transcription factor 15)	-0.86	enough cells in well
Dbx2 (developing brain homeobox 2)	0.71	enough cells in well
Mgrn1 (mahogunin, ring finger 1)	1.19	enough cells in well
Srrm4 (serine/arginine repetitive matrix 4)	0.78	enough cells in well
Rem1 (rad and gem related GTP binding protein 1)	0.41	enough cells in well
Acaa2 (acetyl-CoA acyltransferase 2)	0.41	enough cells in well
Ano5 (anoctamin 5)	2.41	enough cells in well
Vmn1r27 (vomeronasal 1 receptor 27)	4.05 (active)	enough cells in well
Pigx (phosphatidylinositol glycan anchor biosynthesis, class X)	-0.49	enough cells in well
Poll (polymerase (DNA directed), lambda)	0.42	enough cells in well
Brd2 (bromodomain containing 2)	2.1	enough cells in well
Psmd14 (proteasome (prosome, macropain) 26S subunit, non-ATPase, 14)	2.25	enough cells in well
Wdr25 (WD repeat domain 25)	-0.09	enough cells in well
Abtb1 (ankyrin repeat and BTB domain containing 1)	2.24	enough cells in well
Ddc (dopa decarboxylase)	-0.31	enough cells in well
Tssk5 (testis-specific serine kinase 5)		fewer than 50 cells per well; well left out of calls
Clcc1 (chloride channel CLIC-like 1)	0.34	enough cells in well
Mtnr1b (melatonin receptor 1B)	1.59	enough cells in well
Sh3bp2 (SH3-domain binding protein 2)	-0.32	enough cells in well
Vmn1r218 (vomeronasal 1 receptor 218)	-0.92	enough cells in well
Adam8 (a disintegrin and metallopeptidase domain 8)	0.86	enough cells in well
Ptdss2 (phosphatidylserine synthase 2)	-0.71	enough cells in well
Usp5 (ubiquitin specific peptidase 5 (isopeptidase T))	-0.62	enough cells in well
Tmt1a2 (thiol methyltransferase 1A2)		fewer than 50 cells per well; well left out of calls
Cyb5rl (cytochrome b5 reductase-like)	0.6	enough cells in well
Ass1 (argininosuccinate synthetase 1)	0.08	enough cells in well
Smc3 (structural maintenance of chromosomes 3)	-0.56	enough cells in well
Acot7 (acyl-CoA thioesterase 7)	1.07	enough cells in well
Gpr33 (G protein-coupled receptor 33)	0.79	enough cells in well
Hcn2 (hyperpolarization-activated, cyclic nucleotide-gated K+ 2)	0.48	enough cells in well
Pdss1 (prenyl (solanesyl) diphosphate synthase, subunit 1)		fewer than 50 cells per well; well left out of calls
Krt5 (keratin 5)	-0.13	enough cells in well
Fus (fused in sarcoma)	0.18	enough cells in well
Pcdhb18 (protocadherin beta 18)	0.06	enough cells in well
Mrpl16 (mitochondrial ribosomal protein L16)	-1.25	enough cells in well
Myom1 (myomesin 1)	-0.8	enough cells in well
Or52r1b (olfactory receptor family 52 subfamily R member 1B)		fewer than 50 cells per well; well left out of calls
Pdgfc (platelet-derived growth factor, C polypeptide)	-0.1	enough cells in well
Cyp2d13 (cytochrome P450, family 2, subfamily d, polypeptide 13)	1.63	enough cells in well
Nme5 (NME/NM23 family member 5)	-0.19	enough cells in well
Cryab (crystallin, alpha B)	-0.52	enough cells in well
Ramp1 (receptor (calcitonin) activity modifying protein 1)	-0.5	enough cells in well
Sat1 (spermidine/spermine N1-acetyl transferase 1)	-0.8	enough cells in well
Vsig2 (V-set and immunoglobulin domain containing 2)	0.4	enough cells in well
Or52x1 (olfactory receptor family 52 subfamily X member 1)	0.36	enough cells in well
Fbxl12os (F-box and leucine-rich repeat protein 12, opposite strand)	1.57	enough cells in well
Becn1 (beclin 1, autophagy related)	-0.8	enough cells in well
Fpr2 (formyl peptide receptor 2)	0.13	enough cells in well
Trappc5 (trafficking protein particle complex 5)	0.69	enough cells in well
Vmn1r235 (vomeronasal 1 receptor 235)	0.09	enough cells in well
Ufsp2 (UFM1-specific peptidase 2)	2.09	enough cells in well
